Here are results for one substance from article PMC8866510.

The chains behind the UniProt entries cited, without tags or fusion partners. Residues count along the entry.
UniProt Q2FZP8, residues 10-387: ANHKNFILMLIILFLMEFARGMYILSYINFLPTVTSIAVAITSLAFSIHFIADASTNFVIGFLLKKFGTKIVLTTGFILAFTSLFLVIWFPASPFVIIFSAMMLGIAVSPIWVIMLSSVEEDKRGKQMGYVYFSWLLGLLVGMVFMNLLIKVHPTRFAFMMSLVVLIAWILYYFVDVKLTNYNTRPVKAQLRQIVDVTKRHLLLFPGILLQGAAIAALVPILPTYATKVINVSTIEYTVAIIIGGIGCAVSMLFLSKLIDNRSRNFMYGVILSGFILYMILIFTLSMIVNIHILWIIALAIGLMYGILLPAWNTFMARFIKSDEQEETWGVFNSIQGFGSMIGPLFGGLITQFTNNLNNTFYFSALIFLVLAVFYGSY

Results are given in words; binding and its absence hold for the method and conditions named.

The test concerns the target LtaA (S. aureus gentiobiosyl-diacylglycerol transporter), wild type (Staphylococcus aureus) (UniProt Q2FZP8). Put plainly: mass photometry; LtaA in MSP1D1 nanodiscs (POPG:DAG 3:1), 100 nM, 50 mM Tris-HCl pH 8.0, 150 mM NaCl, around 25 °C, Refeyn OneMP; empty nanodiscs as reference; both purified.

As for “LtaA (S. aureus gentiobiosyl-diacylglycerol transporter), wild type (from UniProt Q2FZP8 10-387)”, the binding result is listed as “no binding (tested: 100 nM)”.
